Reference: paper PMC3741120, “A Sperm–Plasma β-N-Acetyl-D-Hexosaminidase Interacting with a Chitinolytic β-N-Acetyl-D-Hexosaminidase in Insect Molting Fluid” (PLoS ONE, 2013)
No constants are given. Whether binding was seen depends on the method and setting. Binding seen in cells or lysates may run through a third protein. A result given as binding can be weak or reduced; the word gives no strength. Where a sequence is shown, tags or fusion partners need not be part of it.

Target: T1, OfHex1-His (β-N-acetyl-D-hexosaminidase Hex1 from Ostrinia furnacalis) (Ostrinia furnacalis) (UniProt Q06GJ0)
T1 sequence: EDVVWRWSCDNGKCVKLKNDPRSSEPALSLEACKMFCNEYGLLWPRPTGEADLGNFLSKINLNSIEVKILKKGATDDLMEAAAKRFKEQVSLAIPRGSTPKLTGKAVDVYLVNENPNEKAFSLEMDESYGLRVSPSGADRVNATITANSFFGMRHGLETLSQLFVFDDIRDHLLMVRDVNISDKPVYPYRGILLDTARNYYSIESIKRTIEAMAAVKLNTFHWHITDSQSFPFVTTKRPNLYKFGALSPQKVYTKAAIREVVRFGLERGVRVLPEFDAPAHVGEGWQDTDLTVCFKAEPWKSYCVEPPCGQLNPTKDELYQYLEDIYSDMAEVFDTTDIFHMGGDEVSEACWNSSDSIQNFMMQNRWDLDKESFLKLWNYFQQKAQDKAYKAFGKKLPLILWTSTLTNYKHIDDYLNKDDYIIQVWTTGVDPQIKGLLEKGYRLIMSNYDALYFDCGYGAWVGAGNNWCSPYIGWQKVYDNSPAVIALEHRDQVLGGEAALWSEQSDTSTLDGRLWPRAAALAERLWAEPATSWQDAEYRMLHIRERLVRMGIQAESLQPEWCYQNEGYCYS
Experiment: pull-down; purified OfHex1-His in binding buffer (20 mM sodium phosphate, 0.5 M NaCl, pH 7.4) incubated 4 h with B. mori molting fluid, then held on Ni-NTA beads 1 h; washed with binding buffer and with 75 mM imidazole, eluted with 250 mM imidazole; Hex3 detected by western blot with Hex3 antibody; only the target purified

Substance: BmHex3 (β-N-acetyl-D-hexosaminidase Hex3 from Bombyx mori) (enzyme)
- binding: binds
